Reference: PubChem BioAssay AID720505 (Drosophila RNAi Screening Center, 2013)

Assay: 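Fly regulators or components of the CRAC channel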 (primary screen)
Cells: Drosophila S2R+ cells
Reagent: long dsRNA against Drosophila genes
Treatment: thapsigargin (2 µM) in calcium-free buffer to empty internal stores, then 2 mM calcium added back
Measured: 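Stores emptied by 2 µM thapsigargin without calcium, then 2 mM calcium re-added; fluo-4 fluorescence followed by FLIPR in 384-well plates, per-well averaged endpoint, raw; two screen passes, some wells retested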
Scale: calcium signal and retest calcium signal: higher = more calcium entry after store depletion
Active means: 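About 1500 genes called as lowering calcium entry, by varying amounts, judged against per-plate control wells with STIM1 as positive and Rho1 as negative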
Meaning of the calls: active = called as lowering calcium entry; inactive = not called
The deposit covers about 20,000 reagents; this is a random part of those that have a named target and a result. In the full data, about 2,100 (10%) are marked active. 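Raw plate signals without normalisation; calls rest on control-based scores that were not deposited; replicate 2 separates called from uncalled poorly.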 The record does not give: the amount of reagent, the time to read-out.

predicted target	dsRNA	calcium signal, replicate 1	calcium signal, replicate 2	retest calcium signal, replicate 1	retest calcium signal, replicate 2	activity call
scramb1	DRSC09724	111	112			inactive
scramb1	DRSC10667	77.6	98.4			active
scramb1	DRSC10668	127	98.6			inactive
CG18304	DRSC02664	171	83.7			inactive
CG17187	DRSC15181	65.9	108			active
CG13625	DRSC14627	171	191			inactive
CG14260	DRSC14755	159	121			inactive
Osi5	DRSC12276	77.9	129			active
CG6337	DRSC06977	121	190			inactive
CG6337	DRSC21870	95.4	173			inactive
RnpS1	DRSC15154	144	171			inactive
Osi8	DRSC12277	107	168			inactive
trsn	DRSC06078	162	140			inactive
Spn	DRSC08490	164	141			inactive
Spn	DRSC08491	53.8	90.6			active
CG4631	DRSC02766	63	93.1	137	165	active
CG4631	DRSC22194	117	206			inactive
bgcn	DRSC04062	94.9	195			inactive
bgcn	DRSC04063	139	207			inactive
eIF1	DRSC08520	81.7	118			inactive
Fancm	DRSC16348	110	157			inactive

The list goes on (8 carried over from the part before).
predicted target	dsRNA	calcium signal, replicate 1	calcium signal, replicate 2	retest calcium signal, replicate 1	retest calcium signal, replicate 2	activity call
Spn	DRSC08490	164	141			inactive
Spn	DRSC08491	53.8	90.6			active
CG4631	DRSC02766	63	93.1	137	165	active
CG4631	DRSC22194	117	206			inactive
bgcn	DRSC04062	94.9	195			inactive
bgcn	DRSC04063	139	207			inactive
eIF1	DRSC08520	81.7	118			inactive
Fancm	DRSC16348	110	157			inactive
CG2006	DRSC15412	59.5	94.8	148	72.4	active
Su(fu)	DRSC16871	104	163			inactive
CG15772	DRSC18078	200	168			inactive
Polr2C	DRSC03415	51.2	75.4			active
CG42588	DRSC09820	76.2	85.2			inactive
CG42588	DRSC22121	72.6	107			inactive
CG18094	DRSC02655	67.6	154			inactive
CG3517	DRSC15492	156	112			inactive
tomboy40	DRSC04918	181	87.5			inactive
Nemp	DRSC20206	89	113			inactive
Cep89	DRSC07110	113	174			inactive
pll	DRSC17026	122	104			inactive
odd	DRSC00832	182	78.4			inactive
odd	DRSC23024	104	131			inactive
CG42493	DRSC05309	93.1	95.4			inactive
CG15140	DRSC02440	131	108			inactive
l(3)L1231	DRSC16323	158	150			inactive
CG5819	DRSC04520	68.9	237			inactive
CG17127	DRSC02581	118	106			inactive
CG31097	DRSC14666	273	98.5			inactive
CG14499	DRSC06470	99.3	139			active
Gr36c	DRSC02437	93.7	153			inactive
mfr	DRSC10543	92.3	66.2			inactive
CG14435	DRSC17928	231	146			inactive
CG14435	DRSC23282	104	142			inactive
bru2	DRSC01246	59.4	127			active
bru2	DRSC01247	123	86.9			inactive
bru2	DRSC01249	229	104			inactive
bru2	DRSC01250	189	103			inactive
bru2	DRSC02557	103	133			inactive
CG8138	DRSC16386	123	135			inactive
CG13561	DRSC04199	141	247			inactive
dhd	DRSC18761	128	68.2			inactive
prt	DRSC16894	150	89.5			inactive
CG15471	DRSC18054	268	109			inactive
